This note sets out measurements from PMC6972752.

Sequences of proteins named here, by UniProt entry; tags and fusion partners are left off.
UniProt Q15751: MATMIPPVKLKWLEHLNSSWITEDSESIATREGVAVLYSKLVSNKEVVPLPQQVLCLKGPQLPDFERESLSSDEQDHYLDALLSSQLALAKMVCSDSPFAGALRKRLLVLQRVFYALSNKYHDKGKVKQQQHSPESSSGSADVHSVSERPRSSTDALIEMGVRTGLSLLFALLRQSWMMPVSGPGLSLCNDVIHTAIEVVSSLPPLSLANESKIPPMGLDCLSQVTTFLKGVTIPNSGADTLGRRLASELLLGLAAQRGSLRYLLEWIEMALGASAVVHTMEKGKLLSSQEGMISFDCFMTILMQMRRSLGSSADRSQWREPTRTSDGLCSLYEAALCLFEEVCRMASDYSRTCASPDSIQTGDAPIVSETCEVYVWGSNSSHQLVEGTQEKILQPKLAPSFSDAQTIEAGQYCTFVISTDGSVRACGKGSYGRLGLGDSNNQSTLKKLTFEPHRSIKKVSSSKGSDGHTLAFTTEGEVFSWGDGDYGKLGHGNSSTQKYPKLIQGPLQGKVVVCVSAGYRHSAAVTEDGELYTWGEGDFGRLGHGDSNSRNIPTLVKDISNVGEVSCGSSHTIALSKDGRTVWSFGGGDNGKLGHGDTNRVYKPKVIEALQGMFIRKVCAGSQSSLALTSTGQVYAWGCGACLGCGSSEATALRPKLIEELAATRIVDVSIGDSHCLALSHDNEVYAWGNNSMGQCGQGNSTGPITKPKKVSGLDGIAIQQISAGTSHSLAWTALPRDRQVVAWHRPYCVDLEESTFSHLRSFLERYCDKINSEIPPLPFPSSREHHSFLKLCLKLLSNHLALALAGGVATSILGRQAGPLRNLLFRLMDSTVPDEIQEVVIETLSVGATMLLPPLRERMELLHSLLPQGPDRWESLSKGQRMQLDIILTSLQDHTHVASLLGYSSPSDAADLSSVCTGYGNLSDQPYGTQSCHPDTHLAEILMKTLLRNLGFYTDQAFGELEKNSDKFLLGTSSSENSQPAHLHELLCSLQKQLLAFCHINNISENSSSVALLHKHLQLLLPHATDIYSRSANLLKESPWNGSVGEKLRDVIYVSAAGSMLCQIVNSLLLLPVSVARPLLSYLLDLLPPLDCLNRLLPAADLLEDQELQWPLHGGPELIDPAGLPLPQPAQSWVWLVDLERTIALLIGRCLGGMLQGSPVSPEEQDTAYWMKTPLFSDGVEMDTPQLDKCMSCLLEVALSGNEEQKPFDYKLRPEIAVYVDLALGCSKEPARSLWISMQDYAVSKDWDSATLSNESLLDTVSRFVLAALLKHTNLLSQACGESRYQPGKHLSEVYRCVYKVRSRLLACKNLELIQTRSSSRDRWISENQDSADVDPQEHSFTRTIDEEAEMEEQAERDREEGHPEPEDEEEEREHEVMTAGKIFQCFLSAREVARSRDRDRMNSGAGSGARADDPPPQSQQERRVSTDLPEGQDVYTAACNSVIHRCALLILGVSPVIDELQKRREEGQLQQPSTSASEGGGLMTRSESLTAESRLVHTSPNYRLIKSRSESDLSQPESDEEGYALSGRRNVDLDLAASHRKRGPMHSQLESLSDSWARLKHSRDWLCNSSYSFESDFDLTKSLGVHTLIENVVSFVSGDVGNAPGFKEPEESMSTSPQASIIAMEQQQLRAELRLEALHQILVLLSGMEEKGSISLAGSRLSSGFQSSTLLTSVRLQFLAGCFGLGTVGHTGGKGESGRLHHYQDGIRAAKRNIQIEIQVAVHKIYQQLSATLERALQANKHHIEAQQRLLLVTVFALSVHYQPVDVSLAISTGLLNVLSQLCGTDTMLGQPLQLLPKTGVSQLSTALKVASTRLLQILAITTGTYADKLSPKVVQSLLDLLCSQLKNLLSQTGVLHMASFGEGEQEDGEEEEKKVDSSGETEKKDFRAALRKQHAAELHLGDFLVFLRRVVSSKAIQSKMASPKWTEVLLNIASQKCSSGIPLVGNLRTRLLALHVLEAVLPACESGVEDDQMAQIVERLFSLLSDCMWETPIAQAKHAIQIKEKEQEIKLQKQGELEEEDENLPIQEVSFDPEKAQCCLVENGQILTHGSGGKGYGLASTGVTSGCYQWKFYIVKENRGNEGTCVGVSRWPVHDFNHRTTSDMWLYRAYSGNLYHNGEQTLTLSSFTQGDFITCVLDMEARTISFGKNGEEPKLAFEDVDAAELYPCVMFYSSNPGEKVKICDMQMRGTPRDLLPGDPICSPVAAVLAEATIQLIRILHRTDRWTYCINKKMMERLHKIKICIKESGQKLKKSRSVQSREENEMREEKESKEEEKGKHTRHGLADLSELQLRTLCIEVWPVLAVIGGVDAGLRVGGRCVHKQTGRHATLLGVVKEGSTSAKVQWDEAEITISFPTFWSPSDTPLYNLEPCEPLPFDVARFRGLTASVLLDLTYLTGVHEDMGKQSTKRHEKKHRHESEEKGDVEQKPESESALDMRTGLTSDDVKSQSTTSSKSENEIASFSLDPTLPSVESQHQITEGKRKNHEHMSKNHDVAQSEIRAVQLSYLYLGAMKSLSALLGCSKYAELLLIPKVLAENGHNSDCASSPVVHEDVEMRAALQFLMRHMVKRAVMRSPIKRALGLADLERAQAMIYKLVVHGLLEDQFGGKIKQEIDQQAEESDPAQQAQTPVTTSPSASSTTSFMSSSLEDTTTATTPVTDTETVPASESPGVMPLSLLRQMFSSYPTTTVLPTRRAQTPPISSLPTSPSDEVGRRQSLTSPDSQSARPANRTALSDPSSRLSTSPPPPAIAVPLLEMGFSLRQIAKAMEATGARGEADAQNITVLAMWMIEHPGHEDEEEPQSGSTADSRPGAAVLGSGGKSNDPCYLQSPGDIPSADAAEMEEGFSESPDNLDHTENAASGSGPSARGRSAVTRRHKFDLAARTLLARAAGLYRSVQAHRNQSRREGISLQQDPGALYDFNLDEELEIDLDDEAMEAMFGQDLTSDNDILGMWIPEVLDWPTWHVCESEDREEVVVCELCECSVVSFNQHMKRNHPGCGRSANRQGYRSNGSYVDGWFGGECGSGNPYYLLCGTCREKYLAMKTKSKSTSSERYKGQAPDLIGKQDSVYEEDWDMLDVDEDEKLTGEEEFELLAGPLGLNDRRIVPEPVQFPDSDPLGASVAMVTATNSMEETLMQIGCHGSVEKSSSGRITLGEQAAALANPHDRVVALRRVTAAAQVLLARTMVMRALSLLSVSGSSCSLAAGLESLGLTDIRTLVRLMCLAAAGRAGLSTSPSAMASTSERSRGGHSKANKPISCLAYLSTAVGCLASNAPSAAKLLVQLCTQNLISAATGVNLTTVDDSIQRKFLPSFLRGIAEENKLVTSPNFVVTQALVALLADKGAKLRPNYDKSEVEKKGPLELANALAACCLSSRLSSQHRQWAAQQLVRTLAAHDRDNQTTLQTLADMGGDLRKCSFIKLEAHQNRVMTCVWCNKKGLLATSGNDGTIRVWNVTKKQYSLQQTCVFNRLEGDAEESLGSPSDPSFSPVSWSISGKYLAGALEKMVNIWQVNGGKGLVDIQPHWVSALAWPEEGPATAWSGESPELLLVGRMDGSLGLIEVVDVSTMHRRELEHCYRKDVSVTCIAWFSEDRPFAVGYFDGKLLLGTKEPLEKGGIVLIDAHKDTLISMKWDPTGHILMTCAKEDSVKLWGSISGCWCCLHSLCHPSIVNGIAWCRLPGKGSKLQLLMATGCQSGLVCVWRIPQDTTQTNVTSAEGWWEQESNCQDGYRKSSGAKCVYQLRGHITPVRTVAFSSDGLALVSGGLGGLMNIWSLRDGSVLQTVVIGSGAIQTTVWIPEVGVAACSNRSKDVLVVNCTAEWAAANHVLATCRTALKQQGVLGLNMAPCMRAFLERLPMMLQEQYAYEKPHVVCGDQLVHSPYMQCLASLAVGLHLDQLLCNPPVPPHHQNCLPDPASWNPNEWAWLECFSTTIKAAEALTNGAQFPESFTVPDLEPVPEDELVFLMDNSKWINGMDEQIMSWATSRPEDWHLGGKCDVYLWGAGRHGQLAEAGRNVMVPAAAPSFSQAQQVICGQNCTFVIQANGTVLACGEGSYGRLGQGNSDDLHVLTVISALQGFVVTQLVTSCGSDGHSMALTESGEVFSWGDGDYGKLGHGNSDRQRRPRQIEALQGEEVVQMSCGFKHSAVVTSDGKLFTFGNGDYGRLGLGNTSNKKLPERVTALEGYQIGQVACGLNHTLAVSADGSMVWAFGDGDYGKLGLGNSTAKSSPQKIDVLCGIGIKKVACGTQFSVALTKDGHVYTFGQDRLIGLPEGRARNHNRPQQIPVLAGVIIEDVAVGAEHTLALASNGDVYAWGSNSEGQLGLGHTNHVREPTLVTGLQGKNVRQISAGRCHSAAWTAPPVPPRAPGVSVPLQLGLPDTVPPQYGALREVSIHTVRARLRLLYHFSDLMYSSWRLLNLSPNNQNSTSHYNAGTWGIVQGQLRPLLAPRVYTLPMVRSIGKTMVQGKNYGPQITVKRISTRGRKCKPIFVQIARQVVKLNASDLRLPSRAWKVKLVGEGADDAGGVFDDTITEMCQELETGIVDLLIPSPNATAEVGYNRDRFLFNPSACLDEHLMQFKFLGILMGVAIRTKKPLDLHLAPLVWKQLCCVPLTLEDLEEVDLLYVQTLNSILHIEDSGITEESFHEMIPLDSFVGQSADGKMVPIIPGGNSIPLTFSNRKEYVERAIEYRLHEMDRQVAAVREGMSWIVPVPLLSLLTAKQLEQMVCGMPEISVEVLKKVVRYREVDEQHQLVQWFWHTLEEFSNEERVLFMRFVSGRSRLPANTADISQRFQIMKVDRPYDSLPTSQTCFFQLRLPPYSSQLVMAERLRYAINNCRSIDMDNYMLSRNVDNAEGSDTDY

The experiment deals with ubiquitin E3 ligase HERC1 (human (endogenous in HEK-293T)) (UniProt Q15751). Nature of the experiment: co-IP; supernatants of NP40 lysates of HEK-293T cells (untransfected, or transfected with Flag-MKK3) incubated at 4 °C for 2 h with anti-HERC1 polyclonal antibodies (Bvg6, 411; 363, 410) or pre-immune serum, then protein A-Sepharose for 1 h; four washes with NP40 buffer; immunoblot.

No constants are given. Whether binding was seen depends on the method and setting. Binding seen in cells or lysates may run through a third protein. Where a sequence is shown, tags or fusion partners need not be part of it.

B1: MAPK kinase MKK3 (endogenous) (enzyme, UniProt P46734 1-347)
chain: MESPASSQPASMPQSKGKSKRKKDLRISCMSKPPAPNPTPPRNLDSRTFITIGDRNFEVEADDLVTISELGRGAYGVVEKVRHAQSGTIMAVKRIRATVNSQEQKRLLMDLDINMRTVDCFYTVTFYGALFREGDVWICMELMDTSLDKFYRKVLDKNMTIPEDILGEIAVSIVRALEHLHSKLSVIHRDVKPSNVLINKEGHVKMCDFGISGYLVDSVAKTMDAGCKPYMAPERINPELNQKGYNVKSDVWSLGITMIEMAILRFPYESWGTPFQQLKQVVEEPSPQLPADRFSPEFVDFTAQCLRKNPAERMSYLELMEHPFFTLHKTKKTDIAAFVKEILGEDS
Turning to B1, the binding entry is “no binding”.

B2: Flag-MKK3 (enzyme, UniProt P46734 1-347)
chain: MESPASSQPASMPQSKGKSKRKKDLRISCMSKPPAPNPTPPRNLDSRTFITIGDRNFEVEADDLVTISELGRGAYGVVEKVRHAQSGTIMAVKRIRATVNSQEQKRLLMDLDINMRTVDCFYTVTFYGALFREGDVWICMELMDTSLDKFYRKVLDKNMTIPEDILGEIAVSIVRALEHLHSKLSVIHRDVKPSNVLINKEGHVKMCDFGISGYLVDSVAKTMDAGCKPYMAPERINPELNQKGYNVKSDVWSLGITMIEMAILRFPYESWGTPFQQLKQVVEEPSPQLPADRFSPEFVDFTAQCLRKNPAERMSYLELMEHPFFTLHKTKKTDIAAFVKEILGEDS
B2: the binding entry is listed as “no binding”.
